No constants are given. Whether binding was seen depends on the method and setting. For some assays here: In cells and extracts the contact can be indirect. Some binding calls cover weakened binding; strength is not graded here. Sequences can lack the tags named with a protein.
What was measured:
[1] = target: T1, PDZ domain of RIM1 (GST fusion protein) (UniProt Q9JIR4); assay: binding of GST fusion proteins of domains (FIG. 6)
T1 sequence (looked up): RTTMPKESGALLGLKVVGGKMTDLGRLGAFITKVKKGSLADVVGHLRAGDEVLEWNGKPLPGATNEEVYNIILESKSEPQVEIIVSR

[2] = target: T1, PDZ domain of RIM1 (GST fusion protein); assay: co-immunoprecipitation of RIM1 with domains of CAST and of CAST with domains of RIM1 (FIG. 6)

B1: C-terminal domain of CAST (GST fusion protein) (protein, not shown: a dimerising Fc or GST)
chain: DQNKKVANLKHNQQLEKKKNAQLLEEVRRREFSMVDNSQHLQIEELMNALEKTRQELDATKARLASTQQSLAEKEAHLANLRMERRKQLEEILEMKQEALLAAISEKDANIALLELSASKKKKTQEEVMALKREKDRLVHQLKQQTQNRMKLMADNYDDDHHHYHHHHHHHHHRSPGRSQHSNHRPSPDQDDEEGIWA
[1]
  binding: binds
[2]
  binding: binds

Reference: patent US20040171810A1
